From patent publication US20220235138A1, “CAR-T CELLS TARGETING IL-1RAP AND THEIR USE IN ACUTE MYELOID LEUKEMIA (AML)” (ETABLISSEMENT FRANCAIS DU SANG, priority 2019, published 2022)
Results are given in words; binding and its absence hold for the method and conditions named. Some results given as binding are weak or reduced against the parent protein; the word gives no strength.

Amino acid sequences for entries named in this document (tags omitted). Residues count along the entry.
UniProt Q9NPH3, residues 21-359: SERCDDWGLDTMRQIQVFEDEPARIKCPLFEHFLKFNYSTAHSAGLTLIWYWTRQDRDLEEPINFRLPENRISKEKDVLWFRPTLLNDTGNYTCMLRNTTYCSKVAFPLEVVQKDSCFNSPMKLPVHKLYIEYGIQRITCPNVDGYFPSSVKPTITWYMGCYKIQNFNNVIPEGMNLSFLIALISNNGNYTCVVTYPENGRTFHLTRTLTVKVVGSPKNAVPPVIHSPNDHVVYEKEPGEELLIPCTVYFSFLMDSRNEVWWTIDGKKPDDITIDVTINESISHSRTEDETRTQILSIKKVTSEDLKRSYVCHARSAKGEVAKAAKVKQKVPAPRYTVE

How the values were obtained:
[1] = target: IL-1RAP recombinant protein (ELISA) (UniProt Q9NPH3); assay: sandwich ELISA: coated anti-human Fc antibody, IL-1RAP protein, #E3C3, anti-mouse Fc-HRP
[2] = target: IL-1RAP recombinant protein (ELISA) (UniProt Q9NPH3); assay: ELISA; BSA as negative control

B1: mouse anti-hIL-1RAP monoclonal antibody, clone #E3C3 (antibody, V domains shown)
VH: QVQLQQPGAELMMPGASVKVSCEASGYTFTDSWMHWVKQRPGQGLEWIGAIDPSDSYTTYNQKFTGKATLSVDESSNTAYMQLSSLTSEDSAVYYCARYYSGSNYISPFPYWGQGTLVTVSA
VL: DIVMTQSHKFMSTSVGDRVTITCKASLDVSTAVAWYQQKPGQSPKLLIYSASYRYTGVPDRFTGSGSGTDFTFTISSVQAEDLAVYYCQQHYSPPFTFGSGTNLEIK
Question: With B1 as the binder, how does the binding [1] read?
Answer: Its binding is “binds”.

Question: What about the binding [2] of the same binder?
Answer: The binding was “binds”.
